The record followed here is PMC8141066.

By UniProt entry, the sequences of proteins in these tests, tags left out. Residues count along the entry.
UniProt Q5RHP9: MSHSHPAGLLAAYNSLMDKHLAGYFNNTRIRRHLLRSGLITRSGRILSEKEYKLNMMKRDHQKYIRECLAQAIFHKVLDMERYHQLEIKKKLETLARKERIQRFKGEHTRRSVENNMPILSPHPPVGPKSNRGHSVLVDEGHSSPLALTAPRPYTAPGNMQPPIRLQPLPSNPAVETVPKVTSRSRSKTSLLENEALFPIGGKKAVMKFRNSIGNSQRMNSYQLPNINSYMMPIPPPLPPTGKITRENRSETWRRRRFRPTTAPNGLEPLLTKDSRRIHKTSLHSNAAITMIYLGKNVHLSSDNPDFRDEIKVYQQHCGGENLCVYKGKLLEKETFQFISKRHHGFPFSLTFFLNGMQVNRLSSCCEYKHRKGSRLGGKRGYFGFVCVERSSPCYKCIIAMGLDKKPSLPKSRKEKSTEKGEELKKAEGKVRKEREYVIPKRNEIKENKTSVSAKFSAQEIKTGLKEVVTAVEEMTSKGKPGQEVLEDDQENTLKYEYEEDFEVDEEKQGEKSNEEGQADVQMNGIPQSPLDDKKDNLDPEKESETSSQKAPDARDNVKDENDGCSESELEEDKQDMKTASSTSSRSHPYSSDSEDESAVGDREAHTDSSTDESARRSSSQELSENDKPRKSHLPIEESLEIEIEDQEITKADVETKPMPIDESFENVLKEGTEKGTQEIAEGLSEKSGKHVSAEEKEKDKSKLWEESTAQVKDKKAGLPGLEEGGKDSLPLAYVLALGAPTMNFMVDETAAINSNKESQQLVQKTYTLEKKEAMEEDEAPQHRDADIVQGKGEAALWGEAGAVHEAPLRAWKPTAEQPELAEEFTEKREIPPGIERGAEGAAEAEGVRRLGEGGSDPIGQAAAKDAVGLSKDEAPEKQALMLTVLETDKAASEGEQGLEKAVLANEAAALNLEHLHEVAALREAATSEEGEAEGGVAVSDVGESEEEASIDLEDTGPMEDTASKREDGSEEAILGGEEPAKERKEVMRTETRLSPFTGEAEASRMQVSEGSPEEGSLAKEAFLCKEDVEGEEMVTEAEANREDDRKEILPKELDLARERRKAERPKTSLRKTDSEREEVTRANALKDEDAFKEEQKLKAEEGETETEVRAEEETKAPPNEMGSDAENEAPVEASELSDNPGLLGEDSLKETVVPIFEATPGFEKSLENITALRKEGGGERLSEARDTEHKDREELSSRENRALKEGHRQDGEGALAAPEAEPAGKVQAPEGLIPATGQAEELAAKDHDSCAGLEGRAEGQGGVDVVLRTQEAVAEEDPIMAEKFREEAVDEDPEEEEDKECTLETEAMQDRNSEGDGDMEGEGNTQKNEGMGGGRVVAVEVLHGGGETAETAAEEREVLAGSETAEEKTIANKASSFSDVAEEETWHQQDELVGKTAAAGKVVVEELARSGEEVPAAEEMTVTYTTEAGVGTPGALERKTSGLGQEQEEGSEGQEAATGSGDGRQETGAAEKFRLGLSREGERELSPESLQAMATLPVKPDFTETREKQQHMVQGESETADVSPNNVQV
UniProt P02545, residues 1-646: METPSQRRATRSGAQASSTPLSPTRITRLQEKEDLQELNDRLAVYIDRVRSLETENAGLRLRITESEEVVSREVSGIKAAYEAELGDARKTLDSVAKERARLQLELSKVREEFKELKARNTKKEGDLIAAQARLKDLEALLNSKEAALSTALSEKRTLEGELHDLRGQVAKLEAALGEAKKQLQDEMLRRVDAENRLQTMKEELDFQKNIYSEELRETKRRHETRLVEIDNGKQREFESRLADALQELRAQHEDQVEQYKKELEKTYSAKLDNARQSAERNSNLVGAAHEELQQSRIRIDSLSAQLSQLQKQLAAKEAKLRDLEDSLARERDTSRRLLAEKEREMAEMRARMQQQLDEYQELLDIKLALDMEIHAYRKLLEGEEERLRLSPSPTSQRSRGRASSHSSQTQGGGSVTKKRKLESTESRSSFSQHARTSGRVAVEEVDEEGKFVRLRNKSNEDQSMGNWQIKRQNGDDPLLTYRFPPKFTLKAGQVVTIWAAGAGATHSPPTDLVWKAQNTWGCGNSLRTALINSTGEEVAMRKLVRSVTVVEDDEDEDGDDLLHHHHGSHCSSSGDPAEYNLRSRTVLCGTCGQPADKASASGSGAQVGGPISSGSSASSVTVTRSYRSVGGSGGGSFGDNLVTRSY
UniProt P39880: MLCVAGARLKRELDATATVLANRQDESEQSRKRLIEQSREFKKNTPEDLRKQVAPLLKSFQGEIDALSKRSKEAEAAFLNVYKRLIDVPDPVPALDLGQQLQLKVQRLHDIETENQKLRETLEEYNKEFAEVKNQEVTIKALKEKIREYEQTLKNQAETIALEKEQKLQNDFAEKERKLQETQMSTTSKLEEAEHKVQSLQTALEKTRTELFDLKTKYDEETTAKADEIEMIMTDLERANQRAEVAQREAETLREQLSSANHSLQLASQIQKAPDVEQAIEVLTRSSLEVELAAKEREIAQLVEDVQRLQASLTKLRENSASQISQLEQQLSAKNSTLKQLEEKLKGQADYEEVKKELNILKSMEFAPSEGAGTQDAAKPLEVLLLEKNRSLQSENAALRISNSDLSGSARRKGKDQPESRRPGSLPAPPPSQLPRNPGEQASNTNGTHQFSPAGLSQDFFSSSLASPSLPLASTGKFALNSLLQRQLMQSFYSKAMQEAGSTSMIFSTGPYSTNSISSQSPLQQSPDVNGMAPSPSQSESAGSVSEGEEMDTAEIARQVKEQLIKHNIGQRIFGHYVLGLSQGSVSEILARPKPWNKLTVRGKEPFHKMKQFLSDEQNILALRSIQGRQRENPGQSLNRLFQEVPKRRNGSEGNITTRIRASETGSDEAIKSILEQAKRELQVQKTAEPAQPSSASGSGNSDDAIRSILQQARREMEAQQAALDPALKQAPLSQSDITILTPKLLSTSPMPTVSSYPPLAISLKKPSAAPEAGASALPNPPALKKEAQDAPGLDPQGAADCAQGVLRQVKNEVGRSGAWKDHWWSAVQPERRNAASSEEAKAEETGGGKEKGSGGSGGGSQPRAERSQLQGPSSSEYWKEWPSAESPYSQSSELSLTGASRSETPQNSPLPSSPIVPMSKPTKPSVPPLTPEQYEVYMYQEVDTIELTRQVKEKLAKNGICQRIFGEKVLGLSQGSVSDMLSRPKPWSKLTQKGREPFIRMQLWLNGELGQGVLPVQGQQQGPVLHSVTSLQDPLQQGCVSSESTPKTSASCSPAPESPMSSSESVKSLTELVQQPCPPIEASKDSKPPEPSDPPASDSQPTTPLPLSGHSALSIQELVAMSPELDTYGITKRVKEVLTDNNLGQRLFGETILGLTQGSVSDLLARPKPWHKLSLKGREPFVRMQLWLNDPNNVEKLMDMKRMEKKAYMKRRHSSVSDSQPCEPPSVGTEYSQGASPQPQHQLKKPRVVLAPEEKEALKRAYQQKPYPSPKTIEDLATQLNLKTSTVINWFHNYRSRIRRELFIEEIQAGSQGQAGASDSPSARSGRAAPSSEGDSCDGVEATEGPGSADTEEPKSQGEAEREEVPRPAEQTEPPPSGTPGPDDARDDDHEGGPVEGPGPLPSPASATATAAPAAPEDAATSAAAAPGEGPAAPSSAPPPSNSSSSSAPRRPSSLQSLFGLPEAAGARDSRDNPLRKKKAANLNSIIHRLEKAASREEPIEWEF
UniProt O00443: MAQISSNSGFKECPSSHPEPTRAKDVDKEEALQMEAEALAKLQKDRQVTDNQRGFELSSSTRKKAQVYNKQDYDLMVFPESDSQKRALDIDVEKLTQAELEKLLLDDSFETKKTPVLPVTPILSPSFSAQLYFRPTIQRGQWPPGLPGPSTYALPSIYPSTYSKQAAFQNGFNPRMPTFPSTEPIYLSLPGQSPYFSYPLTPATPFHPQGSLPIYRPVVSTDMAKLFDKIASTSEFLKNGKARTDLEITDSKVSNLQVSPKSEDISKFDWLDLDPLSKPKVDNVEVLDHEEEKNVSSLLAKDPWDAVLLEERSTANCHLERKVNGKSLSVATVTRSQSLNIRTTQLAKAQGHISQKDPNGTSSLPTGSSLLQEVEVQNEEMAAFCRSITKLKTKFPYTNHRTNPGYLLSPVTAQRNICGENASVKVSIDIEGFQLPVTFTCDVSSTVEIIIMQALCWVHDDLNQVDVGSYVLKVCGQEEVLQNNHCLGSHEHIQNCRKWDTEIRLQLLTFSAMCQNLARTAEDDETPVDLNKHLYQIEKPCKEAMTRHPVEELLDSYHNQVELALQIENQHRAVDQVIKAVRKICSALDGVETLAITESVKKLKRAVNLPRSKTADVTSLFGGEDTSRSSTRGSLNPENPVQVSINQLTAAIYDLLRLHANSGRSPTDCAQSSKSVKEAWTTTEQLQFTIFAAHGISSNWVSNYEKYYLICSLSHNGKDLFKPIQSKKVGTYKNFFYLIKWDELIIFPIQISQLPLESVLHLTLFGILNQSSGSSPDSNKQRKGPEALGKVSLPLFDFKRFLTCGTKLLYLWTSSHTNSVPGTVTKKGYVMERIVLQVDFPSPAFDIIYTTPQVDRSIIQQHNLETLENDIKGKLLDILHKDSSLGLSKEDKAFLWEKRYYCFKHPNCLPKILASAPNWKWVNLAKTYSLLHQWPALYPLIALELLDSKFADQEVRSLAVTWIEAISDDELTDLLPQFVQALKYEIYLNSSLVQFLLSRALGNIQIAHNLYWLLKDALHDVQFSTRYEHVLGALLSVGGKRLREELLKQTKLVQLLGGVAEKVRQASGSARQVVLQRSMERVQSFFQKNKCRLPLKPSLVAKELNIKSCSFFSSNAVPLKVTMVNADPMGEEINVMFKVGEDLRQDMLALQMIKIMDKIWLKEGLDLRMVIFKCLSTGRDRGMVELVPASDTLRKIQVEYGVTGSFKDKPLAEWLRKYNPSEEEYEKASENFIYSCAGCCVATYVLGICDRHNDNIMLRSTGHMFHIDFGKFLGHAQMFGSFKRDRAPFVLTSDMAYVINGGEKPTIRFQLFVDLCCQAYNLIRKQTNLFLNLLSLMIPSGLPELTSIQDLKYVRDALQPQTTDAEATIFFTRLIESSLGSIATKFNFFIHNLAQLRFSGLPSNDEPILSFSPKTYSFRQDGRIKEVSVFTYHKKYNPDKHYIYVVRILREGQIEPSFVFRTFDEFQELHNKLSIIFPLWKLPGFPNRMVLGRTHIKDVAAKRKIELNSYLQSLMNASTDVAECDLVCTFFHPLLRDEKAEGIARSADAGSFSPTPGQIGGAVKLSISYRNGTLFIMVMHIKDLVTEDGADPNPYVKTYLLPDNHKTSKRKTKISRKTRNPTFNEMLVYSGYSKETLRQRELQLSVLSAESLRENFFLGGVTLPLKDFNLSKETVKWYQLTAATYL
UniProt O94973: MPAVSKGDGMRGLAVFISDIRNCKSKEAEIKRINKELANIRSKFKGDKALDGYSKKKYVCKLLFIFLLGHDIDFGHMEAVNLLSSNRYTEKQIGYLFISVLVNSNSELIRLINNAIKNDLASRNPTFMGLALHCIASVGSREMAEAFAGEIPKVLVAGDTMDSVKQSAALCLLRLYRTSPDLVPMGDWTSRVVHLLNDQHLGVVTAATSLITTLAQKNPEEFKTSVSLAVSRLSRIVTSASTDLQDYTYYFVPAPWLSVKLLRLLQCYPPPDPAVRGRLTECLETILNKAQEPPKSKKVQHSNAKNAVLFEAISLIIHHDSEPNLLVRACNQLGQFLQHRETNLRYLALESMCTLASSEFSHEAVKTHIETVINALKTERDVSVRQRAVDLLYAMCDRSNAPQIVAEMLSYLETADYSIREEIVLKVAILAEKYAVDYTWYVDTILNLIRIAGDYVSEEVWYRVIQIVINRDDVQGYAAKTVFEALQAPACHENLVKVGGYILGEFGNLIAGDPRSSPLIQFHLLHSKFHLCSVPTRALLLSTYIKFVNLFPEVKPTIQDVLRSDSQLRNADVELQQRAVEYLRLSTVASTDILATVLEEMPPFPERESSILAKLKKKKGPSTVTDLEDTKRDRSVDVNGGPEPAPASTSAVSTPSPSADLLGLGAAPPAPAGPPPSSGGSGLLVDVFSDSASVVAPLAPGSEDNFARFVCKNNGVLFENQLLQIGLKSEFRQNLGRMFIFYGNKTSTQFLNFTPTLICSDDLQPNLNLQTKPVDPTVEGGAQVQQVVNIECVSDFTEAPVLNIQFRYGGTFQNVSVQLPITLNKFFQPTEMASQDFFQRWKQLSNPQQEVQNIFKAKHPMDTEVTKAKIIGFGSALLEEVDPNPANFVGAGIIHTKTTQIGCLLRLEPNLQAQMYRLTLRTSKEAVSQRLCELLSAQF

These are yes or no findings as the source states them, for the method shown. Binding seen in cells or lysates may run through a third protein. These calls come from enrichment with a bait or labelling near it, and not all partners need be listed.

In the assay the target is glutamate-rich 3 (ERICH3), endogenous in SK-N-SH cells (human (endogenous in SK-N-SH)) (UniProt Q5RHP9). Kind of assay: affinity purification with mass spectrometry; Co-IP with ERICH3 antibody (Ab-Ex 14) from SK-N-SH cells, non-specific rabbit IgG as negative control; SDS-PAGE, silver staining, bands cut out for MS.

As to “myosin heavy chain 10 (from UniProt P35580 1-1976)”, the binding result is reported as “binds”.
In the case of LMNA (from UniProt P02545 1-646), the binding entry is “binds”.
Consider ALK (from UniProt Q9UM73 19-1620), for which the binding entry is listed as “binds”.
On to CUX1 (from UniProt P39880 1-1505), for which the binding result is recorded as “binds”.
Turning to “clathrin heavy chain (CLTC) (from UniProt Q00610 1-1675)”, the binding result is on record as “binds”.
Take “phosphatidylinositol-4-phosphate 3-kinase catalytic subunit type 2 alpha (PIK3C2A) (from UniProt O00443 1-1686)”: the binding entry was “binds”.
With “AP2 associated kinase 1 (AAK1) (from UniProt Q2M2I8 1-961)”, the binding entry was “binds”.
The same measure for “adaptor related protein complex 2 subunit alpha 2 (AP2A2) (from UniProt O94973 1-939)”: “binds”.

B1: POF1B (protein, UniProt Q8WVV4 1-589)
chain: MSSSYWSETSSSSCGTQQLPEVLQCQPQHYHCYHQSSQAQQPPEKNVVYERVRTYSGPMNKVVQALDPFNSREVLSPLKTTSSYQNLVWSDHSQELHSPTLKISTCAPSTLHITQNTEQELHSPTVKLTTYPQTTIRKYVVQNPEQEPLSQFLRGSHFFPGNNVIYEKTIRKVEKLNTDQGCHPQAQCHHHIIQQPQVIHSAHWQQPDSSQQIQAITGNNPISTHIGNELCHSGSSQICEQVIIQDDGPEKLDPRYFGELLADLSRKNTDLYHCLLEHLQRIGGSKQDFESTDESEDIESLIPKGLSEFTKQQIRYILQMRGMSDKSLRLVLSTFSNIREELGHLQNDMTSLENDKMRLEKDLSFKDTQLKEYEELLASVRANNHQQQQGLQDSSSKCQALEENNLSLRHTLSDMEYRLKELEYCKRNLEQENQNLRMQVSETCTGPMLQAKMDEIGNHYTEMVKNLRMEKDREICRLRSQLNQYHKDVSKREGSCSDFQFKLHELTSLLEEKDSLIKRQSEELSKLRQEIYSSHNQPSTGGRTTITTKKYRTQYPILGLLYDDYEYIPPGSETQTIVIEKTEDKYTCP
As for B1, the binding result is “binds”.

B2: TMPO (protein, UniProt P42166 1-694)
chain: MPEFLEDPSVLTKDKLKSELVANNVTLPAGEQRKDVYVQLYLQHLTARNRPPLPAGTNSKGPPDFSSDEEREPTPVLGSGAAAAGRSRAAVGRKATKKTDKPRQEDKDDLDVTELTNEDLLDQLVKYGVNPGPIVGTTRKLYEKKLLKLREQGTESRSSTPLPTISSSAENTRQNGSNDSDRYSDNEEGKKKEHKKVKSTRDIVPFSELGTTPSGGGFFQGISFPEISTRPPLGSTELQAAKKVHTSKGDLPREPLVATNLPGRGQLQKLASERNLFISCKSSHDRCLEKSSSSSSQPEHSAMLVSTAASPSLIKETTTGYYKDIVENICGREKSGIQPLCPERSHISDQSPLSSKRKALEESESSQLISPPLAQAIRDYVNSLLVQGGVGSLPGTSNSMPPLDVENIQKRIDQSKFQETEFLSPPRKVPRLSEKSVEERDSGSFVAFQNIPGSELMSSFAKTVVSHSLTTLGLEVAKQSQHDKIDASELSFPFHESILKVIEEEWQQVDRQLPSLACKYPVSSREATQILSVPKVDDEILGFISEATPLGGIQAASTESCNQQLDLALCRAYEAAASALQIATHTAFVAKAMQADISQAAQILSSDPSRTHQALGILSKTYDAASYICEAAFDEVKMAAHTMGNATVGRRYLWLKDCKINLASKNKLASTPFKGGTLFGGEVCKVIKKRGNKH
As for B2, the binding entry is given as “binds”.

B3: TMOD1 (protein, UniProt P28289 1-359)
chain: MSYRRELEKYRDLDEDEILGALTEEELRTLENELDELDPDNALLPAGLRQKDQTTKAPTGPFKREELLDHLEKQAKEFKDREDLVPYTGEKRGKVWVPKQKPLDPVLESVTLEPELEEALANASDAELCDIAAILGMHTLMSNQQYYQALSSSSIMNKEGLNSVIKPTQYKPVPDEEPNSTDVEETLERIKNNDPKLEEVNLNNIRNIPIPTLKAYAEALKENSYVKKFSIVGTRSNDPVAYALAEMLKENKVLKTLNVESNFISGAGILRLVEALPYNTSLVEMKIDNQSQPLGNKVEMEIVSMLEKNATLLKFGYHFTQQGPRLRASNAMMNNNDLVRKRRLADLTGPIIPKCRSGV
As for B3, the binding result is reported as “binds”.
